Measured values taken from publication PMC2953525, “Subtle Alterations in PCNA-Partner Interactions Severely Impair DNA Replication and Repair” (PLoS Biology, 2010).
No constants are given. Whether binding was seen depends on the method and setting. Some binding calls cover weakened binding; strength is not graded here.

Key:
Test in all cases: two-hybrid; pAD-GAL4-PCNA WT or mutant (called bait) and pBD-GAL4-partner (called prey) in strain YRG2; 10-fold serial dilutions spotted on SC-Leu-Trp-His plates, 30°C, 3 d; growth similar to WT PCNA is denoted 1
pol30-Rad27L2 = target: T1, pol30-Rad27L2 (yeast, UniProt P15873 1-258, IDCL DIDADFLKIEEL to D––VDTLKITEL)
T1 construct: PCNA (POL30), yeast; two residues after the first aspartic acid of the IDCL are deleted; source: yeast two-hybrid fusion (pAD-GAL4, strain YRG2)
T1 sequence: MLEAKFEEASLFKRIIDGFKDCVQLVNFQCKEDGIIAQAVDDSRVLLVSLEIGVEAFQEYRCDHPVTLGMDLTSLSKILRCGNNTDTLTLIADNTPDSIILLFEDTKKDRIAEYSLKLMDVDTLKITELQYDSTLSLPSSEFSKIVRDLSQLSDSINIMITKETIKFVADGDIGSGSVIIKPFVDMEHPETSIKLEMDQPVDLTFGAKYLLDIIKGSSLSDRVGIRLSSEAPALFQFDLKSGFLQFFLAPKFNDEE

pol30-Rad27L1 = target: T2, pol30-Rad27L1 (yeast, UniProt P15873 1-258, IDCL DIDADFLKIEEL to D––VDILKIGEL)
T2 construct: PCNA (POL30), yeast; two residues after the first aspartic acid of the IDCL are deleted; source: yeast two-hybrid fusion (pAD-GAL4, strain YRG2)
T2 sequence: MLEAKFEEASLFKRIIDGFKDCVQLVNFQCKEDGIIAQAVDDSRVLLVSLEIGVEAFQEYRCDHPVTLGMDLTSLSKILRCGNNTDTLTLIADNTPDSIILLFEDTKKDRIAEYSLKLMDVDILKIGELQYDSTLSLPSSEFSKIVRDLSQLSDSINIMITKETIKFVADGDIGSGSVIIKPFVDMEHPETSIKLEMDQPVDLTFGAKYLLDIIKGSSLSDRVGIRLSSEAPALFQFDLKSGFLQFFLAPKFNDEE

pol30-Pol32E9 = target: T3, pol30-Pol32E9 (yeast, UniProt P15873 1-258, IDCL DIDADFLKIEEL to DNDVDSLKIIEL)
T3 construct: PCNA (POL30), yeast; source: yeast two-hybrid fusion (pAD-GAL4, strain YRG2)
T3 sequence: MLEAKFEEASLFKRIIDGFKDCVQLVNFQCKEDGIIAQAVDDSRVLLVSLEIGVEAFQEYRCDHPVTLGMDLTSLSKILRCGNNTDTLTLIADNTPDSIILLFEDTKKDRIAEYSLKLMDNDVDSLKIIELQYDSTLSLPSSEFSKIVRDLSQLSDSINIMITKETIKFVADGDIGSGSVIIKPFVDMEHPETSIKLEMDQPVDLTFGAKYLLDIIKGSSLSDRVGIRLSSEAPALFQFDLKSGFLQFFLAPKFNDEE

[1] = target: proliferating cell nuclear antigen (PCNA) (yeast) (UniProt P15873)
pol30-Rad30E9 = target: T4, pol30-Rad30E9 (yeast, UniProt P15873 1-258, IDCL DIDADFLKIEEL to DNDWDFLKIDEL)
T4 construct: PCNA (POL30), yeast; also called Pol30-Rad30E9p; source: yeast two-hybrid fusion (pAD-GAL4, strain YRG2)
T4 sequence: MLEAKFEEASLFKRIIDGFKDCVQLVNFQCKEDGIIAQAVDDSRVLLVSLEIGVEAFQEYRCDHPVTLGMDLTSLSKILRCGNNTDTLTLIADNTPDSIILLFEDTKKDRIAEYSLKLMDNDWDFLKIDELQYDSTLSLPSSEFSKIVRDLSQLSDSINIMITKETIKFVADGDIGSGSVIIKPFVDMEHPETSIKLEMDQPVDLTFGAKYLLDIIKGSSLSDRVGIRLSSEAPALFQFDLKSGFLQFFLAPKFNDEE

pol30-Rad27E6 = target: T5, pol30-Rad27E6 (yeast, UniProt P15873 1-258, IDCL DIDADFLKIEEL to DGDYDILKIREL)
T5 construct: PCNA (POL30), yeast; source: yeast two-hybrid fusion (pAD-GAL4, strain YRG2)
T5 sequence: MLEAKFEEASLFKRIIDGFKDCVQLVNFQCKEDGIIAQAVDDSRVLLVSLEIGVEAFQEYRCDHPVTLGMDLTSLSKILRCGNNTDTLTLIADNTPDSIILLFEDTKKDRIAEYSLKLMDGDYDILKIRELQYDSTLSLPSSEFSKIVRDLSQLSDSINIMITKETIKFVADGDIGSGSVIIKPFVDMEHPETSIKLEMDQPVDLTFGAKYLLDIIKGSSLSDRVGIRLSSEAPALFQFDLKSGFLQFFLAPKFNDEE

pol30-Rad30E2 = target: T6, pol30-Rad30E2 (yeast, UniProt P15873 1-258, IDCL DIDADFLKIEEL to DDDWDFLKILEL)
T6 construct: PCNA (POL30), yeast; source: yeast two-hybrid fusion (pAD-GAL4, strain YRG2)
T6 sequence: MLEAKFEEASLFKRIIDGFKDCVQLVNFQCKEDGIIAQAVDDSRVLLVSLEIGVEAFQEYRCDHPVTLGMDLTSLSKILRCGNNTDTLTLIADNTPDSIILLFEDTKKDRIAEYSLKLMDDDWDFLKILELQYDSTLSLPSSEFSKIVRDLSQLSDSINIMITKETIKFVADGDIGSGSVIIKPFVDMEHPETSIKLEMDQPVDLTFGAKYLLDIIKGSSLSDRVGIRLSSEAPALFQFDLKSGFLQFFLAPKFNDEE

Measured: binding

B1: Ung1 (natural protein, yeast, UniProt P12887 1-359, looked up)
chain: MWCMRRLPTNSVMTVARKRKQTTIEDFFGTKKSTNEAPNKKGKSGATFMTITNGAAIKTETKAVAKEANTDKYPANSNAKDVYSKNLSSNLRTLLSLELETIDDSWFPHLMDEFKKPYFVKLKQFVTKEQADHTVFPPAKDIYSWTRLTPFNKVKVVIIGQDPYHNFNQAHGLAFSVKPPTPAPPSLKNIYKELKQEYPDFVEDNKVGDLTHWASQGVLLLNTSLTVRAHNANSHSKHGWETFTKRVVQLLIQDREADGKSLVFLLWGNNAIKLVESLLGSTSVGSGSKYPNIMVMKSVHPSPLSASRGFFGTNHFKMINDWLYNTRGEKMIDWSVVPGTSLREVQEANARLESESKDP
notes: Ung1 (base excision repair), yeast; also called pBD-Ung1; source: yeast two-hybrid fusion (pBD-GAL4, strain YRG2)
binds: all assays above

B2: Msh6 (natural protein, yeast, UniProt Q03834 1-1242, looked up)
chain: MAPATPKTSKTAHFENGSTSSQKKMKQSSLLSFFSKQVPSGTPSKKVQKPTPATLENTATDKITKNPQGGKTGKLFVDVDEDNDLTIAEETVSTVRSDIMHSQEPQSDTMLNSNTTEPKSTTTDEDLSSSQSRRNHKRRVNYAESDDDDSDTTFTAKRKKGKVVDSESDEDEYLPDKNDGDEDDDIADDKEDIKGELAEDSGDDDDLISLAETTSKKKFSYNTSHSSSPFTRNISRDNSKKKSRPNQAPSRSYNPSHSQPSATSKSSKFNKQNEERYQWLVDERDAQRRPKSDPEYDPRTLYIPSSAWNKFTPFEKQYWEIKSKMWDCIVFFKKGKFFELYEKDALLANALFDLKIAGGGRANMQLAGIPEMSFEYWAAQFIQMGYKVAKVDQRESMLAKEMREGSKGIVKRELQCILTSGTLTDGDMLHSDLATFCLAIREEPGNFYNETQLDSSTIVQKLNTKIFGAAFIDTATGELQMLEFEDDSECTKLDTLMSQVRPMEVVMERNNLSTLANKIVKFNSAPNAIFNEVKAGEEFYDCDKTYAEIISSEYFSTEEDWPEVLKSYYDTGKKVGFSAFGGLLYYLKWLKLDKNLISMKNIKEYDFVKSQHSMVLDGITLQNLEIFSNSFDGSDKGTLFKLFNRAITPMGKRMMKKWLMHPLLRKNDIESRLDSVDSLLQDITLREQLEITFSKLPDLERMLARIHSRTIKVKDFEKVITAFETIIELQDSLKNNDLKGDVSKYISSFPEGLVEAVKSWTNAFERQKAINENIIVPQRGFDIEFDKSMDRIQELEDELMEILMTYRKQFKCSNIQYKDSGKEIYTIEIPISATKNVPSNWVQMAANKTYKRYYSDEVRALARSMAEAKEIHKTLEEDLKNRLCQKFDAHYNTIWMPTIQAISNIDCLLAITRTSEYLGAPSCRPTIVDEVDSKTNTQLNGFLKFKSLRHPCFNLGATTAKDFIPNDIELGKEQPRLGLLTGANAAGKSTILRMACIAVIMAQMGCYVPCESAVLTPIDRIMTRLGANDNIMQGKSTFFVELAETKKILDMATNRSLLVVDELGRGGSSSDGFAIAESVLHHVATHIQSLGFFATHYGTLASSFKHHPQVRPLKMSILVDEATRNVTFLYKMLEGQSEGSFGMHVASMCGISKEIIDNAQIAADNLEHTSRLVKERDLAANNLNGEVVSVPGGLQSDFVRIAYGDGLKNTKLGSGEGVLNYDWNIKRNVLKSLFSIIDDLQS
notes: Msh6 (mismatch repair), yeast; also called pBD-Msh6; source: yeast two-hybrid fusion (pBD-GAL4, strain YRG2)
binds: all assays above
